The values that follow come from paper PMC12024163, “Competitive Ligand-Induced Recruitment of Coactivators to Specific PPARα/δ/γ Ligand-Binding Domains Revealed by Dual-Emission FRET and X-Ray Diffraction of Cocrystals” (Antioxidants, 2025).

By UniProt entry, the sequences of proteins in these tests, tags left out. Residues count along the entry.
UniProt P37231, residues 231-505: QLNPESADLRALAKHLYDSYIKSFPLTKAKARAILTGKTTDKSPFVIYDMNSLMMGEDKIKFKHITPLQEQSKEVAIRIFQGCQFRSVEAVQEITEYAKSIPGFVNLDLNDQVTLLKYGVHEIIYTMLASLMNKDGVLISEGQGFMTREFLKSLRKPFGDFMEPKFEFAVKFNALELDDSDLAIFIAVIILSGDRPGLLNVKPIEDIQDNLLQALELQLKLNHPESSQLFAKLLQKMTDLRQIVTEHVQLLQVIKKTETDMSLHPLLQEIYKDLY

In assay [1] the target is Human PPARγ-LBD (amino acids 203–477 in isoform 1), amino-terminal His-tagged (human) (UniProt P37231). Kind of assay: FRET or BRET; single-emission TR-FRET (LANCE Ultra); His-tagged LBD (9.5 µL of 400 nM) with Tb cryptate anti-6×His antibody, biotin peptide (5 µL of 1 µM) with ULight-Streptavidin or FITC-Ahx peptide; buffer A (20 mM HEPES pH 7.4, 150 mM NaCl, 1 mM EDTA, 1 mM DTT, 0.005% Tween 20, 0.1% fatty acid-free BSA); room temperature, 2 h; without agonist (vehicle 1% DMSO); both purified. On the technique in general: Bioluminescence resonance energy transfer reports proximity on the nanometre scale.

Assay [2] deals with T1, Human PPARα-LBD (amino acids 200–468), His-tag cleaved with thrombin (human) (UniProt Q07869).
T1 sequence: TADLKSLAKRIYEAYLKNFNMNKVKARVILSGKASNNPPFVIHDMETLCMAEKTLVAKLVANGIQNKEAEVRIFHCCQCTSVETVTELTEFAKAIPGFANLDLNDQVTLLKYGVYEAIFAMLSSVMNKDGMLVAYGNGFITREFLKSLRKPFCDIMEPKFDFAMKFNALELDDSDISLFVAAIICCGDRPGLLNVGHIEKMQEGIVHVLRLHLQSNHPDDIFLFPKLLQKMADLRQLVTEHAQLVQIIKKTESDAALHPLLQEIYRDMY
Kind of assay: crystal structure; hanging-drop cocrystals of His-cleaved LBD (20 mg/mL) with NCoR2 peptide (2 mM), no ligand in the structure; 20 °C; both purified.

No constants are given. Whether binding was seen depends on the method and setting. Some binding calls cover weakened binding; strength is not graded here. For some assays here: Sequences can lack the tags named with a protein.

B1: TRAP220 coactivator peptide, FITC-Ahx-labeled (AAs 631–655) (peptide)
peptide: PVSSMAGNTKNHPMLMNLLKDNPAQ
modifications: FITC-Ahx on the N-terminus (printed FITC-Ahx-PVSSM...)
Take B1: in assay [1], the binding result was “no binding (condition: without pioglitazone)”.

B2: NCoR2 peptide used for cocrystallization (…) (peptide)
peptide: TNMGLEAIIRKALMGKYDQWEE
Regarding B2, in assay [2], the binding result is on record as “binds”.
